Where two headings read alike, the source gives them in different places. For at least one compound, name, drawing or mass did not settle the structure. Some of these results come from one statement about several compounds together.
How the values were obtained:
[1] = biological target: Na+/K+-ATPase (Adenosine 5′-Triphosphatase isolated from porcine cerebral cortex); assay: Na+/K+-ATPase inhibitory activity, colorimetric Adenosine 5′-Triphosphatase Enzymatic Assay (Sigma); type: biochemical
Description: The compound inhibitory effect on ATPase activity was assessed in vitro using the colorimetric Adenosine 5′-Triphosphatase Enzymatic Assay of Sigma (St. Louis, Mo.) according to the manufacturer's instructions. This assay utilizes Adenosine 5′-Triphosphatase isolated from porcine cerebral cortex. Each reaction was performed in a final volume of […] using 0.5 units/ml enzyme in the presence of the different inhibitors. […] IC50 values were determined using the Origin® program software (OriginLab, Northampton, Mass.).

[2] = test system: 7 different cell lines (lung, ovarian, prostate, CNS, breast, colon); assay: SRB assays across 7 cell lines; type: cell-based, human
Description: Sulforhodamine B (SRB) assays were performed according to standard National Cancer Institute Guidelines. Briefly, human tumor cells from different cancer panels were seeded into 96 well plates in […] (plating densities ranging from 5-40,000 cells/well depending on the doubling time of individual cell lines) in serum-containing media for twenty-four hours prior to the addition of the compounds to be assayed. After 24 hours, one plate of each cell line was fixed in situ with trichloroacetic acid (TCA). The fixed slides were used to determine the cell population for each cell line at the time of drug addition (Tz). […]
Following drug addition, each culture was incubated for forty-eight hours. […] After staining, the bound stain was solubilized and the absorbance was read on an automated plate reader at a wavelength of 515 nm.
Using the absorbance measurements [time zero, (Tz), control growth, (C), and test growth in the presence of drug at the ten concentration levels (Ti)], the percentage growth was calculated at each of the drug concentrations levels. Percentage growth inhibition was calculated as: […]
Three dose response parameters were calculated for each experimental agent. […] The drug concentration resulting in total growth inhibition (TGI) was calculated from Ti=Tz. […]

[3] = summary of Table 3, read-out: Na^+K^+ ATPase IC50 value

`CON=C1CC2C(CC[C@]3(C)C(=O)C(F)CC23)[C@@]2(C)CCC(=NOC3CCNC3)CC12` (stereo in doubt) [Compound 8, (5S,10R,13S,16R)-16a-fluoro-6-(methoxyimino)-10,13-dimethyl-3-((R)-pyrrolidin-3-yloxyimino)-tetradecahydro-2H-cyclopenta[a]phenanthren-17(14H)-one] showed an IC50 [1, 3] of under 0.5 µM.
For `CON=C1CC2C(CC[C@]3(C)C(=O)CCC23)[C@@]2(CO)CCC(=NOC3CCNC3)CC12` (stereo in doubt) [Compound 30, (5S,10S,13S)-10-(hydroxymethyl)-6-methoxy-imino-13-methyl-3-((S)-pyrrolidin-3-yloxyimino)-tetradecahydro-14H-cyclopenta[a]phenanthrene-17-one], the IC50 ([1]; enzyme from porcine cerebral cortex, 0.5 units/ml, read-out: Na+ K+ Inhibitory Activity (IC50)) was 7.54 µM, the “GI50 action in most cell lines” value ([2]; SRB, most cell lines) was “single-digit micromolar” and the “viability and/or cell proliferation of cell lines” value ([2]; cell lines representative of lung, breast, CNS, prostate, ovarian, colon and renal neoplasias) was “reduced the viability and/or cell proliferation”.
`C[C@]12CCC(=NOC3CCNC3)CC1C(=O)CC1C2CC[C@]2(C)C(=O)C(F)CC12` (stereo partly drawn) [Compound 4, (10R,13S,16R)-16a-fluoro-10,13-dimethyl-3-((S)-pyrrolidin-3-yloxyimino)-tetradecahydro-14H-cyclopenta[a]phenanthrene-6,17-dione] gave an IC50 [1, 3] of under 0.5 µM.

From US20130303500A1, “COMPOUNDS AND METHODS FOR TREATING NEOPLASIA” (Medexis S.A., priority 2010, published 2013)
